Measurements taken from paper PMC11526107.
No constants are given. Whether binding was seen depends on the method and setting. In cells and extracts the contact can be indirect. Some results given as binding are weak or reduced against the parent protein; the word gives no strength. For part of these data: Where a sequence is shown, tags or fusion partners need not be part of it.

Chains of the proteins cited; added tags and fusions are not shown. Lines headed by an entry give the natural chain unless they say otherwise; changes in a name come on top. A line that says so, or that is headed by a name, gives the form on record, which may keep a tag or linker.
UniProt Q86WV6: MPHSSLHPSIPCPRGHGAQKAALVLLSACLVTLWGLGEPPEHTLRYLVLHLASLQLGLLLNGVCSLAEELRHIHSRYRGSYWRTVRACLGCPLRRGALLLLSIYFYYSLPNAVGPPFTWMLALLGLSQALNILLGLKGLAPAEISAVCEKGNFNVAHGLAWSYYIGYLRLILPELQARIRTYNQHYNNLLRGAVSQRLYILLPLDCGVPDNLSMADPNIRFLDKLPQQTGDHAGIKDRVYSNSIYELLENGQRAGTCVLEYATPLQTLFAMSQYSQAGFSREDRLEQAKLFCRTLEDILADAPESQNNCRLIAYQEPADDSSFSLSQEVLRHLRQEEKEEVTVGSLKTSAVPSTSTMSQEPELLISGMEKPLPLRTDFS
ZAPS (ZC3HAV1 short isoform), endogenous in THP-1 cells (Q7Z2W4-2, form named): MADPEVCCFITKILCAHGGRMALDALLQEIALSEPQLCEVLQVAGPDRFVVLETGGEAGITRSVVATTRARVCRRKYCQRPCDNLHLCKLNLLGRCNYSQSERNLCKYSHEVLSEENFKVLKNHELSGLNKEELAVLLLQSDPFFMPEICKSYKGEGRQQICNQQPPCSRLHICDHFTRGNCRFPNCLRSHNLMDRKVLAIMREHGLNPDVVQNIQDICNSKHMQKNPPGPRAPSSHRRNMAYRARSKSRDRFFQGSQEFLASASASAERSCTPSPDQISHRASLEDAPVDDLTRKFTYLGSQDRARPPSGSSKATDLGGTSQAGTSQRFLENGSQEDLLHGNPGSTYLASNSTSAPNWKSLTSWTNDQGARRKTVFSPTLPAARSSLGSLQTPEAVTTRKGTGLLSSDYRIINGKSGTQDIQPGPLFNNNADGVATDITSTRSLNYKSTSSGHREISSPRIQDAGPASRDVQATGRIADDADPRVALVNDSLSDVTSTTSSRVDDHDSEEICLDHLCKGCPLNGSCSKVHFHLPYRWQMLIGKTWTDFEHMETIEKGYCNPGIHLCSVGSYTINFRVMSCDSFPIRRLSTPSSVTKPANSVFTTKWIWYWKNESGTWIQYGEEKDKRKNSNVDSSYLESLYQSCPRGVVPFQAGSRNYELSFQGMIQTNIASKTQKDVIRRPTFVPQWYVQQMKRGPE

Tests used:
Myc-tagged STING = biological target: T1, Myc-tagged STING (UniProt Q3TBT3); test: co-IP; HEK293T cells transfected with tagged plasmids; IP buffer 1.0% Nonidet P 40, 50 mM Tris-HCl pH 7.4, 50 mM EDTA, 150 mM NaCl
T1 sequence: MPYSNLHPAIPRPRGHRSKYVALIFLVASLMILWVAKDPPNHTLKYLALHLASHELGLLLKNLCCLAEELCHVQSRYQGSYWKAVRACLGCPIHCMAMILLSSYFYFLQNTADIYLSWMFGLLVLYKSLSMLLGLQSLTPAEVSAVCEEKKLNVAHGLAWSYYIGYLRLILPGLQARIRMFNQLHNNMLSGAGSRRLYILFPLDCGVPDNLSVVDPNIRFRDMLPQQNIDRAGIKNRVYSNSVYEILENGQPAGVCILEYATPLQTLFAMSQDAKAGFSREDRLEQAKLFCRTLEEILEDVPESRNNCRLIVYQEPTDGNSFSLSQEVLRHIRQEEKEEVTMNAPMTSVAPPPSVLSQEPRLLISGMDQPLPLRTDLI

[1] = biological target: Stimulator of interferon genes (STING), endogenous in THP-1 cells (human (endogenous in THP-1)) (UniProt Q86WV6); test: co-IP; endogenous proteins in THP-1 cells, resting or stimulated with ISD; IP buffer 1.0% Nonidet P 40, 50 mM Tris-HCl pH 7.4, 50 mM EDTA, 150 mM NaCl

In the case of “Flag-tagged ZAPS (from UniProt Q7Z2W4-2 1-699)”, the binding (Myc-tagged STING) is reported as “binds”.
In the case of “ZAPL (ZC3HAV1 long isoform), endogenous in THP-1 cells (from UniProt Q7Z2W4-1 1-902)”, the binding [1] is reported as “binds”.
With “ZAPS (ZC3HAV1 short isoform), endogenous in THP-1 cells (from UniProt Q7Z2W4-2 1-699)” the binding [1] was “binds”.
